The target of the assay is T1, His6-DgcK-ΔN175 (Bacillus subtilis NCIB 3610, UniProt P54595 176-359).
T1 construct: Diguanylate cyclase DgcK of Bacillus subtilis NCIB 3610, soluble domain, residues 176 to 359 (construct pAT02b); also called His-DgcK-ΔN175; soluble domain of DgcK; source: E. coli BL21(DE3), purified (Ni-NTA, SEC); also coexpressed with YdaK-ΔN111 in E. coli BL21(DE3), in lysate; not shown: His6, N-terminal, kept
T1 sequence (looked up): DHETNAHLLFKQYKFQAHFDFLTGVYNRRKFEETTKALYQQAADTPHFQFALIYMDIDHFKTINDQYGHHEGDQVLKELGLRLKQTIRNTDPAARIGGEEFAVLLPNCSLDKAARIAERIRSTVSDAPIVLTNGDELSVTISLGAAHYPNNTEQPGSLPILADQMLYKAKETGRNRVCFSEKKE
Briefly: affinity purification with mass spectrometry; His6-DgcK-ΔN175 coexpressed with untagged YdaK-ΔN111 from two plasmids in E. coli BL21(DE3), isolated from the lysate by Ni-NTA chromatography; elution fraction analysed by SDS-PAGE and MS.

Results are given in words; binding and its absence hold for the method and conditions named. In cells and extracts the contact can be indirect. A yes stands for co-enrichment or nearness to the bait. Other partners may have been found. Sequences can lack the tags named with a protein.

The values below come from publication PMC7064775, “Cyclic di-GMP Signaling in Bacillus subtilis Is Governed by Direct Interactions of Diguanylate Cyclases and Cognate Receptors” (mBio, 2020).

B1: YdaK-ΔN111 (untagged) (domain or fragment, UniProt P96585 112-283)
chain: DITAELRRSMTRLQSEIKSYVAVDRVTGFDNKQRMKLELSEEIKRAERYGNSFVFLLLHMHYFKEFKSLYGEKETDRLFQYVGQQIRTSVRETDKKFRPSDERIGIVLTHTPAEHMPAVLTKLKKQLDTYQLENGKYVSLTFHVCYLPYRNDIQTADQFLEELENEMMMNEL
For the molecule B1, the binding entry was “binds”.
